The values that follow come from patent US20220127365A1.

Positions count from the first letter of the chain named. Results are given in words; binding and its absence hold for the method and conditions named. A result given as binding can be weak or reduced; the word gives no strength.

The target in assay [1] is cynomolgus CD94 (cynomolgus monkey). In words: flow cytometry on HEK293 cells overexpressing cynomolgus CD94; column 'Cyno CD94 cross-reactivity'. For orientation: Flow cytometry measures light scatter and fluorescence of single cells or particles in a stream.
For assay [2] the target is unchanged. In words: flow cytometry on HEK293 cells overexpressing cynomolgus CD94.
For assay [3] the target is unchanged. Briefly: flow cytometry on HEK293 cells expressing cynomolgus CD94 (FIG. 31B).
The target is the same in assay [4]. In words: flow cytometry on HEK293 cells overexpressing cynomolgus CD94; unconjugated antibody in a dilution series, Alexa Fluor 647 anti-human secondary antibody.
Assay [5] has the same target. In words: flow cytometry, ATX-130-KIF Alexa Fluor 647 at 50 nM on cynomolgus PBMCs.
Assay [6] shares this target. Briefly: flow cytometry, ATX-130-KIF Alexa Fluor 647 at 50 nM on cynomolgus PBMCs (FIG. 18).
Assay [7] shares this target. Briefly: flow cytometry on cynomolgus CD94-expressing HEK293 cells (FIG. 3A, 3B).
Assay [8] has the same target. In words: flow cytometry on cynomolgus CD94-expressing HEK293 cells.

B1: anti-CD94 antibody ATX-126 (antibody, human IgG1, V domains shown)
VH: QVQLQESGGGLVQPGGSLKLSCAASGFTFSSYSMNWVRQAPGKGLEWVSSISTSSNFIYYADSVKGRFTISRDNSKNTLYLQMNSLRAEDTAVYYCVRDMGPFYSFYYMDVWGNGTTVTVSS
VL: DIQVTQSPATLSLSPGERATLSCRASQSVSSSYLAWYQQKPGQAPRLLIYGASNRATGIPARFSGSGSGTDFTLTISSLQPEDFATYYCLQHNSYPPTFGGGTKVDIK
Turning to B1, the binding entry in assay [1], in assay [2], in assay [3] and in assay [4] was “binds” throughout.

B2: anti-CD94 antibody ATX-123 (antibody, human IgG1, V domains shown)
VH: QVQLVQSGAEVKKPGASVKVSCKASGYTFTSYGISWVRQAPGQGLEWMGWISAYNGNTNYAQKFQGRVTMTTDTSTNTAYMELRSLRSDDTAVYYCARDRGRFGELLSDYWGQGTLVTVSS
VL: DIVMTQSPSSVSASVGDRVTITCRASQGISNYLAWYQQKPGKAPKLLIYAASSLQSGVPSRFSGSGSGTDFTLTISSLQPEDFATYYCLQHNSYPFTFGPGTKVDIK
As to B2, the binding result in assay [1], in assay [2] and in assay [3] was “binds” throughout.

B3: anti-CD94 antibody ATX-124 (antibody, human IgG1, V domains shown)
VH: B2 VH with F64L, N77S, L83V, L107F, S108F, Y110H
VL: B2 VL
With B3, the binding result in assay [1] was “no binding (tested: 100 nM highest concentration tested)”.

B4: anti-CD94 antibody ATX-122 (antibody, V domains shown)
VH: QVQLVQSGAEVKKPGASLKVSCKASGYTFTSYGVSWVRQAPGQGLEWVGWISPYNGNTNYAHNLQGRVAMTTDTSTSTAYMELRSLRSDDMAVYYCARDRGRFGELFFDYWGQGTLVTVSS
VL: B2 VL
Turning to B4, the binding entry in assay [1] is listed as “no binding (tested: 100 nM highest concentration tested)”.

B5: anti-CD94 antibody ATX-130 (antibody, human IgG1, V domains shown)
VH: EVQLLESGGGLVKPGGSLRLSCAASGFTFSSYSMNWVRQAPGKGLEWVSSISTSSNFIYYADSVKGRFTISRDNAKNSLYLQMNSLRAEDTAVYYCARDLGRYYYYMDVWGKGTTVTVSS
VL: DIVMTQSPSSLSASVGDRVTITCRASQSISSWLAWYQQKPGKAPKSLIYAASSLQSGVPSKFSGSGSGTDFTLTISSLQPEDVATYYCQKYNSAPFTFGPGTKVDIK
As to B5, the binding result in assay [1], in assay [2], in assay [3] and in assay [4] was “binds” in each case.

B6: ATX-130-KIF (antibody, human IgG1, V domains shown)
VH: B5 VH
VL: B5 VL
Regarding B6, the binding result in assay [5] and in assay [6] was “binds” in each case.

B7: anti-CD94 antibody ATX-125 (antibody, human IgG1, V domains shown)
VH: QVQLQQSGPGLVKPSETLSLTCTVSGGSISSIIYYWGWIRQPPGKGLEWIGSIYYSGSTYYNPSLKSRVTISVDTSKNQFSLNLSSVTAADTAVYYCARLPLTGEFAFDIWGQGTMVTVSS
VL: EIVLTQSPATLSLSPGERATLSCRASQSVSTYLAWFQQKPGQAPRLLIYGASSRATGIPDRFSGSGSGTDFTLTISRLEPEDFAVYYCQQYGSSPITFGQGTRLEIK
Regarding B7, the binding entry in assay [1], in assay [2], in assay [3] and in assay [4] was “binds” each time.

B8: anti-CD94 antibody ATX-129 (antibody, human IgG1, V domains shown)
VH: EVQLVQSGGGLVQPGGSLRLSCAASGFTFSSYWMSWVRQAPGKGLEWVANIKQDGSAKYYVDSVKGRFTISRDNAKNSLYLQMNSLRAEDTAVYYCARGYYFDYWGQGTLVTVSS
VL: EIVLTQSPSTLSASVGDRVTITCRVSQGISSYLNWYRQKPGKVPKLLIYAASSLQSGVPSRFSGSGSGTDFTLTISSLQPEDFATYYCQQSYSTPITFGQGTRLEIK
On to B8, for which the binding entry in assay [1], in assay [2], in assay [3] and in assay [4] was “binds” each time.

B9: anti-CD94 antibody ATX-127 (antibody, human IgG1, V domains shown)
VH: QVQLQQSGPGLVKPSGTLSLTCAVSGGSISSRYWWTWVRQPPGKGLEWIGEIYHSGTTNYNPSLESRVTISVDKSKNQFSLKVSSVTAADTAVYYCARSPNWGYYYYYMDVWGKGTTVTVSS
VL: EIVMTQSPATLSVSPGERATLSCRASQSVSSSYLAWYQQKPGQAPRLLIYGASSRATGIPDRFSGSGSGTDFTLTISRLESEDFAVYYCQQYGRSLTFGGGTKVEIK
B9: the binding result in assay [1], in assay [2], in assay [3] and in assay [4] was “binds” each time.

B10: anti-CD94 antibody 18H3 (antibody, V domains shown)
VH: EVQLVQSGAEVKKPGESLKISCKGSGYRFTSYWIGWVRQMPGKGLEWMGIIYPGDSDTRYSPSFQGQVIISADKSITTAFLQWSSLKASDTAMYYCARPFDYGGSPGYFDYWGQGTLVTVSS
VL: DIQMTQSPSTLSASVGDRVTITCRASQSIRSWLAWYQQKPGKAPKLLIYKASSLESGVPSRFSGSGSGTEFTLTISSLQPDDFATYYCQQYNTFWTFGQGTKVEIK
On to B10, for which the binding entry in assay [7] and in assay [8] was “binds” each time.
